The target of this test is Heat shock factor 1 (human (endogenous in SU-DHL-2, SU-DHL-4, SU-DHL-6)) (UniProt Q00613). As to the kind of experiment: affinity purification with mass spectrometry; Co-IP from DLBCL cells followed by mass spectrometry of HSF1-binding proteins.

Amino acid sequences for entries named in this document (tags omitted).
UniProt Q00613: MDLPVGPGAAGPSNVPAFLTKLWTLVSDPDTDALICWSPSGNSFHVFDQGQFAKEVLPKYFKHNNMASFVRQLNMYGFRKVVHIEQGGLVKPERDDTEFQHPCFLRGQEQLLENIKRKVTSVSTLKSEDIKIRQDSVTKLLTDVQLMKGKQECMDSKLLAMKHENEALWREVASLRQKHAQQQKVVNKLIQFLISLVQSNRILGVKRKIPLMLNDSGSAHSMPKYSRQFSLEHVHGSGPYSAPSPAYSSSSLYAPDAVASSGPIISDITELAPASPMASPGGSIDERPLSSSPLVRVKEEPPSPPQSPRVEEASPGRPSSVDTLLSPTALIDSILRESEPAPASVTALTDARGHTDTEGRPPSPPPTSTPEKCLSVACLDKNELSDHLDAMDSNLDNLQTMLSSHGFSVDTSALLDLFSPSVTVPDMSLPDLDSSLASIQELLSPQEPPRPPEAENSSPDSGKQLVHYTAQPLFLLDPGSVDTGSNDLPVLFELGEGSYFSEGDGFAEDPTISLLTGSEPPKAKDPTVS
UniProt O14744: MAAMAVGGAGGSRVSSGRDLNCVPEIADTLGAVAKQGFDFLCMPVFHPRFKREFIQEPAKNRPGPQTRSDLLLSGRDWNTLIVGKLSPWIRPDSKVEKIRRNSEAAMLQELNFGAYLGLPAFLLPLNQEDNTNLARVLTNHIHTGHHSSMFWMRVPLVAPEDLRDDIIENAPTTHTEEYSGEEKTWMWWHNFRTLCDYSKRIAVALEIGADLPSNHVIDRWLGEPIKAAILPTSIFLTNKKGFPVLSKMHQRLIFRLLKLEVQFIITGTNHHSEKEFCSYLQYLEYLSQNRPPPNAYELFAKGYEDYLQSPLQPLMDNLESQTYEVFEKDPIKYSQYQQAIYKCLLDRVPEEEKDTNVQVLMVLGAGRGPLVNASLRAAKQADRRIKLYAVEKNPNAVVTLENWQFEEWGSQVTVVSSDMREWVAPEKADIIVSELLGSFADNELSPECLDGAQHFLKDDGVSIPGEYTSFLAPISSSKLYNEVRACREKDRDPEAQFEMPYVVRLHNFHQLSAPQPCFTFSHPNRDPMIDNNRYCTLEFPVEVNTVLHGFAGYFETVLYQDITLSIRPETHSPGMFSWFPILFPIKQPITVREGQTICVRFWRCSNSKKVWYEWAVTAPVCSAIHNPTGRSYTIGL

In paper PMC12271312 one finds binding data, which are given here for one substance.

Results are given in words; binding and its absence hold for the method and conditions named. Binding seen in cells or lysates may run through a third protein. These calls come from enrichment with a bait or labelling near it, and not all partners need be listed.

For “protein arginine methyltransferase 5 (from UniProt O14744 1-637) (enzyme)”, the binding result is reported as “binds”.
